From paper PMC12512194, “The Allosteric Regulator Inositol Phosphate Dramatically Affects the Efficacy and Selectivity of Inhibitors for Different HDAC Complexes” (Journal of the American Chemical Society, 2025)

Tested on: class I HDAC complexes
Experiment: fluorescent HDAC assay, summaries over groups of complexes
Assay type: biochemical
Conditions: 100 μM InsP6
Description: Class I HDAC complexes were expressed and purified from mammalian HEK293F cells. […] We explored seven different HDAC complexes: five with HDAC1 (CoREST, MIER1, MiDAC, NuRD, and RERE); one with HDAC2 (CoREST), and one with HDAC3 (SMRT). Complexes ranged from having two components (HDAC1-RERE) to four components (HDAC1-NuRD) (Figure A, Table S1). […]
was resuspended in 4 mL of cleavage buffer. 30 -40 µL of 1.2 mg/mL Tobacco etch virus ( TEV) protease was added to the mixture and incubated overnight at 4 °C. After T EV cleavage, the protein was concentrated to 500 µL using the 4 mL Amicon®Ultra centrifugal fi lter (Merck Millipore) with a membrane nominal molecular weight cut off of 10 kDa. The concentrated protein was then filtered through a 0.22 µm centrifugal filter (Merck Millipore). […]
the bottom of gel. […] Concentration of the protein was determined using a protein assay dye reagent (Bio-Rad). […]
The concentration of the protein sample in mg/mL was then calculated by multiplying by ‘17’, which represents a factor calculated from a BSA standard curve. […]
complex and inhibitor were then incubated at 20 °C, 100 RPM for 2 hours . […] Fluorescence intensity was determined with the Victor […]
IC50 values were calculated using GraphPad

O=C(CCCCCCC(=O)Nc1ccccc1)NO [SAHA, vorinostat]
effect of InsP6 on inhibition: no significant effects
